Assay results as given in patent publication US6365628B1 (Thia Medica AS, priority 1998, dated 2002).

Assays:
[1] = test system: rats; experiment: Administration of TTA to rats for 12 weeks, hepatic and plasma fatty acid content; type: in vivo, rat
[2] = test system: obese Zucker fa/fa rats; experiment: Fatty acid composition in liver and plasma of obese Zucker fa/fa rats (Example 19); type: in vivo, rat; conditions: 300 mg/day/kg gavage once daily for 10 days
Procedure: Male obese Zucker fa/fa rats, weighing 100 g at the start of the experiment, were housed in pairs in metal wire cages in a room maintained at 12 h light-dark cycles and a constant temperature of 20±3° C. The animals were acclimatised for at least one week under these conditions before the start of the experiment.
TTA and palmitic acid (control), was suspended in 0.5% (w/v) carboxymethyl cellulose (CMC) and administered at a dose of 300 mg/day/kg body weight, by gastric intubation (gavage) once daily for 10 days. The rats were fasted for 2 hours before termination of the experiment. Blood and organs were collected. Total lipids were extracted from liver and plasma. The lipids were evaporated, saponified and esterified prior to separation using a Carlo Erba 2900 gas-chromatograph.

Tetradecylthioacetic acid [TTA]
Hepatic and plasma content of monounsaturated fatty acids (mainly oleic acid) [1]: nearly doubled | Polyunsaturated fatty acids (mainly linoleic acid and DHA) ([1]; hepatic and plasma content): decreased | Oleic acid, fatty acid composition in liver (% of total) [2]: 14.9 ± 1.0 % of total | Oleic acid, fatty acid composition in plasma (% of total) [2]: 22.1 ± 0.5 % of total
